Laboratory results taken from publication PMC3402478, “ADP Ribosylation by PARP-1 Suppresses HOXB7 Transcriptional Activity”.
These are yes or no findings as the source states them, for the method shown. In cells and extracts the contact can be indirect. Binding calls can cover weak binding; strength is not graded here.

By UniProt entry, the sequences of proteins in these tests, tags left out. Where a name states a change or a piece, a line headed by the entry shows the natural chain unless it says otherwise.
UniProt P09629: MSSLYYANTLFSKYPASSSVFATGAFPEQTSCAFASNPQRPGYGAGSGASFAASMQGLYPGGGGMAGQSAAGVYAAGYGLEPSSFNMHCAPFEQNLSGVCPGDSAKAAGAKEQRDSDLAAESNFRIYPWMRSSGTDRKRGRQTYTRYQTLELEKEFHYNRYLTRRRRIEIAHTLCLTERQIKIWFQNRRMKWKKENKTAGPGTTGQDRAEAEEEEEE
UniProt P09874: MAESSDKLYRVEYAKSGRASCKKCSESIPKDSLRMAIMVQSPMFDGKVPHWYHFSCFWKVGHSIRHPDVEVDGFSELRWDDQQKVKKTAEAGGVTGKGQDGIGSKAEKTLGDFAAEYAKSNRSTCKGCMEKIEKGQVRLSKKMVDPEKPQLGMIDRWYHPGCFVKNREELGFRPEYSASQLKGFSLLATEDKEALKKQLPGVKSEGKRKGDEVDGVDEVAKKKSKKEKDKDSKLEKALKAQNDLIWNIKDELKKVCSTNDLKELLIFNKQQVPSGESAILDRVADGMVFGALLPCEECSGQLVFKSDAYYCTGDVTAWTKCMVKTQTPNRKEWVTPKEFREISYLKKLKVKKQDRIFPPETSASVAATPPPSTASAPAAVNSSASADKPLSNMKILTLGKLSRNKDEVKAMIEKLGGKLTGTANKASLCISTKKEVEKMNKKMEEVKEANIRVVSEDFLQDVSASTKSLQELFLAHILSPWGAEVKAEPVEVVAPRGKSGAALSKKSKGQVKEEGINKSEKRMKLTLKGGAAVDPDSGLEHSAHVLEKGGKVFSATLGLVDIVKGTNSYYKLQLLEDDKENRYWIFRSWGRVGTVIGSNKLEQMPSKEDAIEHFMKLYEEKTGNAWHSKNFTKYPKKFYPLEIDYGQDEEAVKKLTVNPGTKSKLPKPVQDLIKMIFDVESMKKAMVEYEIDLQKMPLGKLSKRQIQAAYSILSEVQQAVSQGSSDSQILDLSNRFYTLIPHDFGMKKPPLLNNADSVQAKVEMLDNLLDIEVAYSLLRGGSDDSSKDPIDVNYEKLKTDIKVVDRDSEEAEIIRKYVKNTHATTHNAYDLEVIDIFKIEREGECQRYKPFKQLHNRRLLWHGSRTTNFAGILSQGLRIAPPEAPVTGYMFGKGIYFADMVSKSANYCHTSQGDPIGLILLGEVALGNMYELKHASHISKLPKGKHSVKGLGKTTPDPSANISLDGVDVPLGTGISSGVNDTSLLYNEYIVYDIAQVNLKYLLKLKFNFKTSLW

Target: FB7Δh3 (UniProt P09629)
Assay: co-IP; Flag-tagged HOXB7 or its deletion/mutant constructs transiently transfected into CHO cells together with a PARP expression construct; immunoprecipitation with FLAG antibodies, immunoblot with PARP antibodies (the methods say HEK293T, myc-tagged PARP1, anti-myc blot)

binding: binds
Substance: PARP-1 from a PARP expression construct (PARPpCR3.1), in CHO cells (from UniProt P09874 1-1014) (enzyme)
